Reference: paper PMC9092470, “Understanding p300-transcription factor interactions using sequence variation and hybridization†” (RSC Chemical Biology, 2022)
Results are given in words; binding and its absence hold for the method and conditions named. Some results given as binding are weak or reduced against the parent protein; the word gives no strength. For some assays here: Sequences can lack the tags named with a protein. Each block holds one binder with its values, some of them ahead of it.

Chains of the proteins cited; added tags and fusions are not shown. Residues count along the entry.
UniProt Q09472, residues 330-420: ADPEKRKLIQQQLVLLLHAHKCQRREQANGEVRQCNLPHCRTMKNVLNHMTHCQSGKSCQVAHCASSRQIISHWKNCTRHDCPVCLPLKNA

Legend:
[1] = molecular target: p300 CH1 domain (residues 330-420), GST removed with PreScission protease (human) (UniProt Q09472); experiment: fluorescence polarisation; direct fluorescence anisotropy titration; 50 nM GFP or GFP-HIF-1α as fluorescent species, GST-p300 or p300 in a two-fold dilution series starting from 10 µM; 25 mM Tris-HCl, 150 mM NaCl, 1 mM DTT, pH 7.4; 27 °C ± 1 °C; technical triplicates; both purified
[2] = molecular target: GST-p300 (GST-tagged p300 CH1 domain, residues 330-420) (human) (UniProt Q09472); experiment: fluorescence polarisation; fluorescence anisotropy competition; 5 nM FAM-HIF786-826 as tracer, two-fold dilution series of the competitor from 10 µM over 24 points; 25 mM Tris-HCl, 150 mM NaCl, 1 mM DTT, pH 7.4; concentration of p300 not stated; both purified
[3] = molecular target: p300 CH1 domain (residues 330-420), GST removed with thrombin (human) (UniProt Q09472); experiment: ITC; competition ITC, apparent constants; CITED2224-259 (50 µM) titrated to 4.5 µM p300 saturated beforehand with 5.5 µM HIF-1α786-826; competition model with KD and ΔH of HIF-1α786-826 fixed; 40 mM sodium phosphate, pH 7.5, 100 mM NaCl, 1 mM DTT; 35 °C; Microcal VP ITC; both purified
[4] = molecular target: p300 CH1 domain (residues 330-420), GST removed with thrombin (human) (UniProt Q09472); experiment: ITC; competition ITC, apparent constants; HIF-1α786-826 (50 µM) titrated to 4.4 µM p300 saturated beforehand with 5.9 µM CITED2224-259; competition model with KD and ΔH of CITED2224-259 fixed; 40 mM sodium phosphate, pH 7.5, 100 mM NaCl, 1 mM DTT; 35 °C; Microcal VP ITC; both purified
[5] = molecular target: p300 CH1 domain (residues 330-420), GST removed with thrombin (human) (UniProt Q09472); experiment: ITC; competition ITC, apparent constants; HIF-1α776-826 (50 µM) titrated to 5 µM p300 saturated beforehand with 5.8 µM CITED2216-269; competition model with KD and ΔH of CITED2 fixed; 40 mM sodium phosphate, pH 7.5, 100 mM NaCl, 1 mM DTT; 35 °C; Microcal VP ITC; both purified

- binding [1]: binds
B1: GFP-HIF-1α776-826 (His10-GFP fusion of the HIF-1α C-TAD, wild type) (domain or fragment)
chain: SDLACRLLGQSMDESGLPQLTSYDCEVNAPIQGSRNLLQGEELLRALDQVN

- binding [2]: binds
Binder: SMDESGLPQLTSYDCEVNAPIQGSRNLLQGEELLRALDQVN (FAM label (position not given)) [FAM-HIF786-826 (fluorescent tracer)]

- binding [3]: binds
Binder: SMDESGLPQLTSYDCEVNAPIQGSRNLLQGEELLRALDQVN (N-terminal acetyl (Ac-); C-terminal amide (-NH2)) [HIF-1α786-826 (synthetic)]

- binding [4]: binds
Binder: DEEVLMSLVIEMGLDRIKELPELWLGQNEFDFMTDF (N-terminal acetyl (Ac-); C-terminal amide (-NH2)) [CITED2224-259 (synthetic)]

- binding [5]: binds
B2: CITED2216-269 (synthetic) (peptide)
peptide: NVIDTDFIDEEVLMSLVIEMGLDRIKELPELWLGQNEFDFMTDFVCKQQPSRVS
modifications: N-terminal acetyl (Ac-); C-terminal amide (-NH2)
